Measurements as given in the supplement of paper PMC10849652.
This is one part of the list.

Chains of the proteins cited; added tags and fusions are not shown. Lines headed by an entry give the natural chain unless they say otherwise; changes in a name come on top.
UniProt Q9HD45: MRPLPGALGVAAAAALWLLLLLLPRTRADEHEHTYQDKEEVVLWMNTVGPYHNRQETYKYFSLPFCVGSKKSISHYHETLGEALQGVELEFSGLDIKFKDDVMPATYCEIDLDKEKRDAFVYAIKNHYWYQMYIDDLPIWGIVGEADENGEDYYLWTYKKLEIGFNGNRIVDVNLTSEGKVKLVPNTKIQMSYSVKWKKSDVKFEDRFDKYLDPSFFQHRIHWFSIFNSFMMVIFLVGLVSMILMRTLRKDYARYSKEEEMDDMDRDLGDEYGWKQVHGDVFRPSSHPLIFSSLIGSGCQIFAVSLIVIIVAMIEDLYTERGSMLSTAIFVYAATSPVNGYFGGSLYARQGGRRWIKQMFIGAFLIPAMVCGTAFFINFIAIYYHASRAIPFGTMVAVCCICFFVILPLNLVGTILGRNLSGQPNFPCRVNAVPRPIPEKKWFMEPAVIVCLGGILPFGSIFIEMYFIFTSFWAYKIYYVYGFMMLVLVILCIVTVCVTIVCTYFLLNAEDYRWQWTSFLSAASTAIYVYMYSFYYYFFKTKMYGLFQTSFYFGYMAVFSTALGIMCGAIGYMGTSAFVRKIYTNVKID
UniProt P04183: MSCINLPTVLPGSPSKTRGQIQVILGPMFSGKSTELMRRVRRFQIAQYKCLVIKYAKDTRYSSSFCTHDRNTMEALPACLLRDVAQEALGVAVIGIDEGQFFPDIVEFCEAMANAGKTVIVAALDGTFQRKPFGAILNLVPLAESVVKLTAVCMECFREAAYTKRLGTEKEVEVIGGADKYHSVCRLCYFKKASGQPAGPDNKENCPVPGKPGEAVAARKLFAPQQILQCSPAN
UniProt Q3LXA3: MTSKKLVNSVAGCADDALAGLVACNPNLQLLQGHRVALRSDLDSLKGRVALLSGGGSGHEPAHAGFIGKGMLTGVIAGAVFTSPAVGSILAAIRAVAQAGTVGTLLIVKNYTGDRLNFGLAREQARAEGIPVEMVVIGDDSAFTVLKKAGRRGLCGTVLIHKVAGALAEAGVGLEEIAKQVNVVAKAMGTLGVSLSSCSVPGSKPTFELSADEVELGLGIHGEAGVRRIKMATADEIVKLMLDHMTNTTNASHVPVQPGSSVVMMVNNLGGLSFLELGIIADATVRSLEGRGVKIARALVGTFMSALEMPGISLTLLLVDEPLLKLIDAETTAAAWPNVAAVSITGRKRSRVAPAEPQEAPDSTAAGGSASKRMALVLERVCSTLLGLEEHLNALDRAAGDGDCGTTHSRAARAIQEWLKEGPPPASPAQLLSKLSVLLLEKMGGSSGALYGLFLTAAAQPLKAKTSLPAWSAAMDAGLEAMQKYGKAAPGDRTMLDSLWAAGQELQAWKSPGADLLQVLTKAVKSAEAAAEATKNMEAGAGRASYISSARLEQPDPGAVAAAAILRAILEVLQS
UniProt Q03167: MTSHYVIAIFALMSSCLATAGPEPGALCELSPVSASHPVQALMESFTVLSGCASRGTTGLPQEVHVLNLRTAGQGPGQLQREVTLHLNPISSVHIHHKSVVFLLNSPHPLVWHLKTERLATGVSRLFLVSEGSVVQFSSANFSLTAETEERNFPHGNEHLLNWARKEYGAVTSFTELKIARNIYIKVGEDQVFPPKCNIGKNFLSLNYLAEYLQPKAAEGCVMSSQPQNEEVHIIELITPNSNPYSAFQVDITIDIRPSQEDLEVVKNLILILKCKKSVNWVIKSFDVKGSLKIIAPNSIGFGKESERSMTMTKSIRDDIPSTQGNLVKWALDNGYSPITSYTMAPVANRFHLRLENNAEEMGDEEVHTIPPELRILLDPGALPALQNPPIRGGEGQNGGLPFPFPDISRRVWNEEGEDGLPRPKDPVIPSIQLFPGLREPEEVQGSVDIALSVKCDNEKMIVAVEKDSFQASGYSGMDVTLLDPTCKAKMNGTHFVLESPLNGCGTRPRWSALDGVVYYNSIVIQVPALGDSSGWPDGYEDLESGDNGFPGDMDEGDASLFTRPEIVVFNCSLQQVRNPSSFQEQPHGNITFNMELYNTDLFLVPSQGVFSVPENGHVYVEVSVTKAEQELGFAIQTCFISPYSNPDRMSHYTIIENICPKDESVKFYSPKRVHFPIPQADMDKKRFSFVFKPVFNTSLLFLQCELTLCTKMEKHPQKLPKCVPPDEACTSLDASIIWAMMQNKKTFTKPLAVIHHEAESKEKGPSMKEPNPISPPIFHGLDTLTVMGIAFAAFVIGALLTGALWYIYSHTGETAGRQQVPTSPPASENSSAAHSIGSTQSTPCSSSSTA
UniProt Q969X1: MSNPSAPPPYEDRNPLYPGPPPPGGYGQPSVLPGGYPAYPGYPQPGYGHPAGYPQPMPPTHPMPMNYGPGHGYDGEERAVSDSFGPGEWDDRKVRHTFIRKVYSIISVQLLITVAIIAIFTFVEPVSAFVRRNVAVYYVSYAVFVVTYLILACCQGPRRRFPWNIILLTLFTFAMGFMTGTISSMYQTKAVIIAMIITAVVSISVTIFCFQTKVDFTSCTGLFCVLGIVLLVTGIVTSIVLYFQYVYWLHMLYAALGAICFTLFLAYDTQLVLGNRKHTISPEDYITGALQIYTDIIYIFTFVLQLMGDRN
UniProt Q9NR96: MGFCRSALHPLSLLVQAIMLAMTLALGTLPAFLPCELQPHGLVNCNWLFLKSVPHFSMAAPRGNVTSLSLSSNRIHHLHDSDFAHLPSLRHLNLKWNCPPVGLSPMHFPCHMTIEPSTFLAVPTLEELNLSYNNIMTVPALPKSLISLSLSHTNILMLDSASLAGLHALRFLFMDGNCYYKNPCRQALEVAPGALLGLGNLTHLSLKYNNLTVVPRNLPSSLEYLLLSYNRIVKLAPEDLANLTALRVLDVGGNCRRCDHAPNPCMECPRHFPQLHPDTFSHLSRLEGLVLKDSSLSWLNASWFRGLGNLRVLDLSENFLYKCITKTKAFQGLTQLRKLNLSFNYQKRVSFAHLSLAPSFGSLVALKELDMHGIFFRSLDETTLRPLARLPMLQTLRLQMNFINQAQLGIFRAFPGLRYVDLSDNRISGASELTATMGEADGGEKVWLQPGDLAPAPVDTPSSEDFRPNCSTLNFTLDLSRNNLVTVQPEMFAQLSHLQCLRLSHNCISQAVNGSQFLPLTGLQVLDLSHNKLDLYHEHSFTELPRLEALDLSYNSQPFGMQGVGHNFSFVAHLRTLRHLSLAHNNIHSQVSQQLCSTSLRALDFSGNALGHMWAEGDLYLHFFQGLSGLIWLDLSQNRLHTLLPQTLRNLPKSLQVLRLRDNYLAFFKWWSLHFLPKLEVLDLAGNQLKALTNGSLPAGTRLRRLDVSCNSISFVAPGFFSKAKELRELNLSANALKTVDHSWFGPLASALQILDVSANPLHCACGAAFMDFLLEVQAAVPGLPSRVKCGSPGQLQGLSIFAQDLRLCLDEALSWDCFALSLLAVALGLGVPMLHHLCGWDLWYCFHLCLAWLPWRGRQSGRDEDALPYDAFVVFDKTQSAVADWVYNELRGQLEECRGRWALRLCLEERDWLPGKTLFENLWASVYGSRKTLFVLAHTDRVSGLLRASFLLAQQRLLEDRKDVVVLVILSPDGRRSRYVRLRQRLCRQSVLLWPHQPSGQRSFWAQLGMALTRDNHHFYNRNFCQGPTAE
UniProt Q9UNS1: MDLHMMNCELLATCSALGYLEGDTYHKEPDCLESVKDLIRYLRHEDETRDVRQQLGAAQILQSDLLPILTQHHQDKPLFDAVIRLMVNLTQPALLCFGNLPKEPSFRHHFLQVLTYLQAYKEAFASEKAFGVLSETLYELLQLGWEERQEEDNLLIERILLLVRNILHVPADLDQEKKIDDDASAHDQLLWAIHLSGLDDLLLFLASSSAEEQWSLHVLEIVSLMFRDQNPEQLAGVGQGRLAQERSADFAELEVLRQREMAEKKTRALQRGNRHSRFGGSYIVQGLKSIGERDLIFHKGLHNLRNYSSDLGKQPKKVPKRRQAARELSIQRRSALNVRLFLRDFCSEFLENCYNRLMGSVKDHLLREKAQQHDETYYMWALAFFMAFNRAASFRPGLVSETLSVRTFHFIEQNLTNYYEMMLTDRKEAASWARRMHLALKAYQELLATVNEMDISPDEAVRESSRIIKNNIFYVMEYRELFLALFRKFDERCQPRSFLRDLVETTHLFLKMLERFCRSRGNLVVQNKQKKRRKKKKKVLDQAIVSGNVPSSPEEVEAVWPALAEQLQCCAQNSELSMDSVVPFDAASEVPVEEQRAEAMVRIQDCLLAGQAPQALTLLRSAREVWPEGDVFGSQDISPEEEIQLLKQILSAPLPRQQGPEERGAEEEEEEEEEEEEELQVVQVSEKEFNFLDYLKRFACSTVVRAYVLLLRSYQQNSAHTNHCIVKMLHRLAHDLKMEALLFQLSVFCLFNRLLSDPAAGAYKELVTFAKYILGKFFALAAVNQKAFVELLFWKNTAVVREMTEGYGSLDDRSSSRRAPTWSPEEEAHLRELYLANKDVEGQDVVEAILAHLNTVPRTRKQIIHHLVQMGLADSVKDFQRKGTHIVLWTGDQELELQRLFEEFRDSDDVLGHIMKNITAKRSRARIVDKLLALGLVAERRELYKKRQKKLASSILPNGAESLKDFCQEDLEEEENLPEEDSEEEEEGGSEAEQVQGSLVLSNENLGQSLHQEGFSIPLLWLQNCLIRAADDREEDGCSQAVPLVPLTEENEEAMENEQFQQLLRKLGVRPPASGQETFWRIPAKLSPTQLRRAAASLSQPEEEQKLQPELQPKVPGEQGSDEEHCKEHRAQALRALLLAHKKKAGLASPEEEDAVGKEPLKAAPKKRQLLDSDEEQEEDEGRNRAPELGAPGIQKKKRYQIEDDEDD
UniProt Q9UM00: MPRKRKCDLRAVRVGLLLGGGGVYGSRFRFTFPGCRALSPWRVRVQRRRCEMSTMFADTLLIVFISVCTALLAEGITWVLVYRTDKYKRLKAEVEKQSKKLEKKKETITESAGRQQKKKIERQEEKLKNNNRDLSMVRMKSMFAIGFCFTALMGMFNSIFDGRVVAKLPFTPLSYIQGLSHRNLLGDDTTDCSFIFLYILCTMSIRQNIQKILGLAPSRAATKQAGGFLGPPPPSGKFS
UniProt Q9BVV7: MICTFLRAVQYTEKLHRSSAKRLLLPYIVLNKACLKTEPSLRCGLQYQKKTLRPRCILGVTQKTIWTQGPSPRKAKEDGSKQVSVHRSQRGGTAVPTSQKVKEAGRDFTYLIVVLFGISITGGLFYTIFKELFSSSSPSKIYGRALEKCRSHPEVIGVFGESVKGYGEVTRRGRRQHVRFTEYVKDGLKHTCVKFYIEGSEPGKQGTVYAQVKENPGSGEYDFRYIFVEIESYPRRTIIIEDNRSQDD
UniProt Q8WUY1: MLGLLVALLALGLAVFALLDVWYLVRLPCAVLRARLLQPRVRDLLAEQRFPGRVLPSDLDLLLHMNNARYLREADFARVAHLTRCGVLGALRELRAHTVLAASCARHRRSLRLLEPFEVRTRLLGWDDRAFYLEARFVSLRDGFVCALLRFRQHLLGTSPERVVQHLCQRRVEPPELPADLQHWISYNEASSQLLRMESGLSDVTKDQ
UniProt Q99595: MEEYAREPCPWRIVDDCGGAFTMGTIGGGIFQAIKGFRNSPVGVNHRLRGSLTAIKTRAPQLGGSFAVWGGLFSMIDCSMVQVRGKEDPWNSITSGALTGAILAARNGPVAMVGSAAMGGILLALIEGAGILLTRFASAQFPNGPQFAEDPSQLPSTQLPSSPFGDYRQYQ
UniProt Q08117: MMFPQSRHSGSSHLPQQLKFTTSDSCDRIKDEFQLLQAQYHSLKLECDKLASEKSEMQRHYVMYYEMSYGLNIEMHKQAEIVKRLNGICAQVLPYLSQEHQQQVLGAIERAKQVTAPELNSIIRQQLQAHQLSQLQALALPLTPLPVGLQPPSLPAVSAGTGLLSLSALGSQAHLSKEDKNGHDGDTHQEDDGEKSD
UniProt Q86WV6: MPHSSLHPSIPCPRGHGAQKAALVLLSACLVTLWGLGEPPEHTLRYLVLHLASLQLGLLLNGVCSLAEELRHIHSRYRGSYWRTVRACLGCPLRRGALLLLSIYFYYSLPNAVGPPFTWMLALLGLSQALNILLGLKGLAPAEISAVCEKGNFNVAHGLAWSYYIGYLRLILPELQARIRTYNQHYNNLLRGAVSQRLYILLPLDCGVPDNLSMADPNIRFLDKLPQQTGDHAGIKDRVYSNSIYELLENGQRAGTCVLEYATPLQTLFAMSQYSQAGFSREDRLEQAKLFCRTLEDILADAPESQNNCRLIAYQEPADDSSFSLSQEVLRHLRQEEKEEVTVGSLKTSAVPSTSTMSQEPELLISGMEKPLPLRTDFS
UniProt Q96CP7: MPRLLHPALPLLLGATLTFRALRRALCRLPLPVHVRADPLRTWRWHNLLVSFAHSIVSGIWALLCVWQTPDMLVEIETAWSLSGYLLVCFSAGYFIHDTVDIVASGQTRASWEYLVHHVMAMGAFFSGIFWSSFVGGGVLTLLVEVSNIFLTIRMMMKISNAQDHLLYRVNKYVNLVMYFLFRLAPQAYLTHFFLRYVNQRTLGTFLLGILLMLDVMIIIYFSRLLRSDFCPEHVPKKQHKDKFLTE
UniProt Q9Y2S6, whole entry, looked up: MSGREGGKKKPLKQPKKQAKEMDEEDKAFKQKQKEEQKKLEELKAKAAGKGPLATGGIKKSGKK

How the values were obtained:
Assay in all cases: log2 fold change, soluble protein after heating vs DMSO (PISA); higher = thermal stabilisation; K562 lysate, 10 uM; active = over 0.2 and 3.5 SD of the protein, either way, in both replicates (recomputed)
erlotinib = compound: C#Cc1cccc(Nc2ncnc3cc(OCCOC)c(OCCOC)cc23)c1 [erlotinib]
In short: (§1)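 K562 pellets were dounce-homogenised in PBS pH 7.4 containing 1 mM MgCl2, and the crude extract, at 1 mg/mL protein, was exposed to 10 μM compound for 30 min. Aliquots were heated for 3 min across 48°C-58°C, pooled, brought to 0.5% NP-40 at 4°C and spun at 21,000xg for 90 min, with the supernatant taken as soluble protein. TMTpro 16plex LC-MS/MS with equalised channel sums quantified that protein. Values are log-two fold changes in thermal stability relative to solvent controls, taken from duplicates.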

[1] = compound: C/C(=N\NC(=O)C1=CC(=CC=C1)S(=O)(=O)N2CCOCC2)/C3=C(C=CC(=C3)Cl)O
In short: as §1

[2] = compound: C1=CC(=CC=C1C2=NC3=C(N2)C=C(C=C3)C(=O)N)OC4=CC=C(C=C4)Cl
In short: as §1

[3] = compound: C1=CC2=C(C=CC(=C2)/C=C\3/C(=O)NC(=NCC4=CC=CS4)S3)N=C1
In short: as §1

[4] = compound: C1=CC2=NC=CN=C2C=C1/C=C/3\C(=O)NC(=O)S3
In short: as §1

[5] = compound: C1=CC=C(C=C1)C2=NC(=C(N2)C3=CC=NC=C3)C4=CC(=C(C=C4)Cl)O
In short: as §1

[6] = compound: C1=CC=C2C(=C1)C3=NNC4=CC=CC(=C43)C2=O
In short: as §1

[7] = compound: C1CCN(C1)C(=O)NC2=CC=CC(=C2)NC3=NC=C(C(=N3)NCCC4=CN=CN4)Br
In short: as §1

[8] = compound: C1CN(CCC1(CC2=CC=C(C=C2)Cl)N)C3=NC=NC4=C3C=CN4
In short: as §1

IRAK-1-4 Inhibitor I = compound: C1COCCN1CCN2C3=CC=CC=C3N=C2NC(=O)C4=CC(=CC=C4)[N+](=O)[O-] [IRAK-1-4 Inhibitor I]
In short: as §1

ibrutinib = compound: C=CC(=O)N1CCC[C@@H](n2nc(-c3ccc(Oc4ccccc4)cc3)c3c(N)ncnc32)C1 [ibrutinib]
In short: as §1

[9] = compound: CC(=O)c1cnc2ccc(-c3cc(Cl)c(O)c(Cl)c3)nc2c1N[C@H]1CC[C@H](CN(C)C)CC1
In short: as §1

ralimetinib = compound: CC(C)(C)Cn1c(N)nc2ccc(-c3[nH]c(C(C)(C)C)nc3-c3ccc(F)cc3)nc21 [ralimetinib]
In short: as §1

[10] = compound: CC(C)(O)CC(=O)NCCn1ccc2ncnc(Nc3ccc(Oc4cccc(C(F)(F)F)c4)c(Cl)c3)c21
In short: as §1

[11] = compound: CC(C)C1=C2N=C(C=C(N2N=C1)NCC3=CC=CC=C3)NCCCCCCN
In short: as §1

[12] = compound: CC1=C(C(CC(=O)N1)C2=CC=C(C=C2)C(F)(F)F)C(=O)NC3=C(C=C4C(=C3)C=NN4)F
In short: as §1

[13] = compound: CC1=C(C2=C(C=C1)C(=O)C3=CC=CC=C3N2CCCN)C
In short: as §1

[14] = compound: CC1=C(C=C(C=C1)NC(=O)C2=CC(=CC=C2)C(C)(C)C#N)NC3=CC4=C(C=C3)N=CN(C4=O)C
In short: as §1

[15] = compound: CC1=C(C=C(C=C1)NC(=O)C2=CC(=CC=C2)N(C)C)NC(=O)C3=CC=C(C=C3)O
In short: as §1

[16] = compound: CC1=CC=C(C=C1)SC2=C3C=C(SC3=CN=C2)C(=O)N
In short: as §1

Measured: log2 fold change

TM9SF3 (UniProt Q9HD45)
inactive: erlotinib -0.002 | [1] -0.002 | [2] -0.031 | [3] 0.026 | [4] -0.001 | [5] -0.029 | [6] 0.022 | [7] -0.03 | [8] 0.027 | IRAK-1-4 Inhibitor I 0.018 | ibrutinib 0.009 | [9] 0.009 | ralimetinib -0.002 | [10] 0 | [11] -0.023 | [12] 0.09 | [13] 0.03 | [14] 0 | [15] -0.017 | [16] 0.006

TK1 (UniProt P04183)
inactive: erlotinib 0.003 | [1] -0.112 | [2] 0.036 | [3] -0.001 | [4] 0.028 | [5] -0.003 | [6] 0.021 | [7] 0.013 | [8] 0.017 | IRAK-1-4 Inhibitor I 0.008 | ibrutinib 0.004 | [9] -0.004 | ralimetinib 0.023 | [10] -0.022 | [11] -0.029 | [12] 0 | [13] 0.006 | [14] 0.046 | [15] -0.014 | [16] -0.006

TKFC (UniProt Q3LXA3)
inactive: erlotinib 0 | [1] -0.005 | [2] 0.002 | [3] 0.005 | [4] 0.008 | [5] -0.022 | [6] -0.009 | [7] -0.014 | [8] 0 | IRAK-1-4 Inhibitor I -0.016 | ibrutinib -0.002 | [9] 0.006 | ralimetinib -0.007 | [10] -0.009 | [11] -0.016 | [12] -0.035 | [13] -0.026 | [14] 0.051 | [15] -0.01 | [16] 0.011

TGFBR3 (UniProt Q03167)
inactive: erlotinib -0.037 | [1] -0.025 | [2] -0.001 | [3] -0.036 | [4] 0.031 | [5] 0 | [6] -0.066 | [7] 0.009 | [8] 0.01 | IRAK-1-4 Inhibitor I -0.047 | ibrutinib 0.047 | [9] 0.065 | ralimetinib 0.038 | [10] -0.033 | [11] -0.07 | [12] 0.016 | [13] -0.019 | [14] 0.06 | [15] -0.006 | [16] 0.038

TMA16 (UniProt Q96EY4)
inactive: erlotinib -0.065 | [1] 0.009 | [2] -0.049 | [3] 0.007 | [4] 0.032 | [5] 0.02 | [6] 0.014 | [7] 0.055 | [8] 0.009 | IRAK-1-4 Inhibitor I -0.026 | ibrutinib 0.009 | [9] 0.006 | ralimetinib -0.016 | [10] 0.012 | [11] 0.027 | [12] 0.023 | [13] -0.031 | [14] 0.013 | [15] 0.009 | [16] 0.038

TMBIM1 (UniProt Q969X1)
inactive: erlotinib -0.07 | [1] 0.115 | [2] 0 | [3] 0 | [4] 0.054 | [5] -0.023 | [6] -0.05 | [7] 0.013 | [8] 0.029 | IRAK-1-4 Inhibitor I 0 | ibrutinib 0.058 | [9] -0.002 | ralimetinib 0.022 | [10] -0.005 | [11] 0.01 | [12] 0.011 | [13] 0.028 | [14] 0.072 | [15] -0.041 | [16] -0.015

Two neighbouring entries from above:
TM9SF3 (UniProt Q9HD45)
inactive: erlotinib -0.002 | [1] -0.002 | [2] -0.031 | [3] 0.026 | [4] -0.001 | [5] -0.029 | [6] 0.022 | [7] -0.03 | [8] 0.027 | IRAK-1-4 Inhibitor I 0.018 | ibrutinib 0.009 | [9] 0.009 | ralimetinib -0.002 | [10] 0 | [11] -0.023 | [12] 0.09 | [13] 0.03 | [14] 0 | [15] -0.017 | [16] 0.006

TK1 (UniProt P04183)
inactive: erlotinib 0.003 | [1] -0.112 | [2] 0.036 | [3] -0.001 | [4] 0.028 | [5] -0.003 | [6] 0.021 | [7] 0.013 | [8] 0.017 | IRAK-1-4 Inhibitor I 0.008 | ibrutinib 0.004 | [9] -0.004 | ralimetinib 0.023 | [10] -0.022 | [11] -0.029 | [12] 0 | [13] 0.006 | [14] 0.046 | [15] -0.014 | [16] -0.006

Carrying on:

TLR9 isoform 4 (UniProt Q9NR96)
inactive: erlotinib -0.086 | [1] 0.054 | [2] 0.104 | [3] 0.009 | [4] -0.063 | [5] -0.044 | [6] 0.085 | [7] 0.02 | [8] 0.024 | IRAK-1-4 Inhibitor I -0.009 | ibrutinib 0 | [9] 0.023 | ralimetinib 0.015 | [10] 0.008 | [11] -0.047 | [12] -0.045 | [13] 0.06 | [14] -0.035 | [15] 0 | [16] -0.01

TIMELESS (UniProt Q9UNS1)
inactive: erlotinib 0.023 | [1] 0.069 | [2] -0.083 | [3] -0.003 | [4] -0.002 | [5] -0.001 | [6] -0.068 | [7] -0.018 | [8] 0 | IRAK-1-4 Inhibitor I -0.032 | ibrutinib 0.011 | [9] -0.079 | ralimetinib 0.006 | [10] -0.053 | [11] -0.01 | [12] 0.011 | [13] -0.007 | [14] -0.01 | [15] 0.029 | [16] -0.027

TMCO1 (UniProt Q9UM00)
inactive: erlotinib 0.04 | [1] 0.073 | [2] -0.126 | [3] 0.059 | [4] -0.018 | [5] 0.022 | [6] -0.053 | [7] -0.092 | [8] 0.007 | IRAK-1-4 Inhibitor I -0.023 | ibrutinib 0.015 | [9] 0.081 | ralimetinib 0.018 | [10] -0.056 | [11] -0.05 | [12] -0.026 | [13] -0.009 | [14] -0.047 | [15] -0.008 | [16] 0.007

TIMM21 (UniProt Q9BVV7)
inactive: erlotinib 0.01 | [1] -0.018 | [2] 0.094 | [3] -0.011 | [4] -0.029 | [5] -0.051 | [6] -0.021 | [7] -0.039 | [8] -0.021 | IRAK-1-4 Inhibitor I -0.022 | ibrutinib 0.007 | [9] 0 | ralimetinib 0.048 | [10] 0 | [11] 0.032 | [12] -0.072 | [13] 0.001 | [14] -0.003 | [15] 0.014 | [16] 0.003

THEM6 (UniProt Q8WUY1)
inactive: erlotinib -0.068 | [1] 0.03 | [2] -0.049 | [3] -0.037 | [4] 0.047 | [5] -0.047 | [6] 0.01 | [7] -0.016 | [8] -0.025 | IRAK-1-4 Inhibitor I -0.065 | ibrutinib 0.091 | [9] 0.012 | ralimetinib 0.063 | [10] 0.013 | [11] -0.019 | [12] 0.001 | [13] -0.044 | [14] 0.008 | [15] -0.018 | [16] 0.008

TIMM17A (UniProt Q99595)
inactive: erlotinib 0.074 | [1] -0.107 | [2] 0.069 | [3] -0.039 | [4] -0.01 | [5] -0.065 | [6] -0.004 | [7] -0.023 | [8] 0.068 | IRAK-1-4 Inhibitor I 0.102 | ibrutinib 0.022 | [9] -0.011 | ralimetinib -0.038 | [10] -0.134 | [11] -0.064 | [12] 0.001 | [13] 0.002 | [14] 0.06 | [15] -0.011 | [16] -0.011

TLE5 isoform 2 (UniProt Q08117)
inactive: erlotinib 0.007 | [1] 0.026 | [2] 0.111 | [3] -0.003 | [4] 0.159 | [5] -0.08 | [6] -0.056 | [7] 0.012 | [8] -0.006 | IRAK-1-4 Inhibitor I 0.077 | ibrutinib 0.128 | [9] 0.033 | ralimetinib 0.03 | [10] 0.039 | [11] 0.024 | [12] 0.083 | [13] -0.074 | [14] -0.021 | [15] -0.02 | [16] 0.006

TMEM173 (UniProt Q86WV6)
inactive: erlotinib -0.005 | [1] 0.028 | [2] -0.061 | [3] 0.011 | [4] -0.004 | [5] -0.136 | [6] -0.077 | [7] 0.001 | [8] -0.024 | IRAK-1-4 Inhibitor I 0.014 | ibrutinib 0.021 | [9] -0.006 | ralimetinib 0.09 | [10] -0.003 | [11] 0 | [12] -0.198 | [13] 0.013 | [14] 0.023 | [15] 0.04 | [16] 0.062

TLCD1 (UniProt Q96CP7)
inactive: erlotinib -0.048 | [1] -0.1 | [2] -0.13 | [3] 0.011 | [4] 0.148 | [5] -0.078 | [6] 0.022 | [7] 0.006 | [8] 0.012 | IRAK-1-4 Inhibitor I 0.319 | ibrutinib -0.228 | [9] 0.026 | ralimetinib 0.097 | [10] -0.074 | [11] -0.19 | [12] -0.1 | [13] 0.036 | [14] -0.135 | [15] 0 | [16] -0.079

TMA7 (UniProt Q9Y2S6)
inactive: erlotinib 0 | [1] 0.001 | [2] 0.014 | [3] 0.004 | [4] -0.032 | [5] 0.054 | [6] 0.002 | [7] 0.012 | [8] -0.007 | IRAK-1-4 Inhibitor I -0.023 | ibrutinib -0.063 | [9] 0.029 | ralimetinib -0.094 | [10] 0.047 | [11] 0.019 | [12] -0.011 | [13] 0.051 | [14] -0.127 | [15] 0.015 | [16] -0.002
